In the supplement of paper PMC10849652 one finds log2 fold change data, which are given here for 40 targets.

Amino acid sequences for entries named in this document (tags omitted). A change or cut given only in a name is not applied to a line headed by its entry.
UniProt Q9NZB2: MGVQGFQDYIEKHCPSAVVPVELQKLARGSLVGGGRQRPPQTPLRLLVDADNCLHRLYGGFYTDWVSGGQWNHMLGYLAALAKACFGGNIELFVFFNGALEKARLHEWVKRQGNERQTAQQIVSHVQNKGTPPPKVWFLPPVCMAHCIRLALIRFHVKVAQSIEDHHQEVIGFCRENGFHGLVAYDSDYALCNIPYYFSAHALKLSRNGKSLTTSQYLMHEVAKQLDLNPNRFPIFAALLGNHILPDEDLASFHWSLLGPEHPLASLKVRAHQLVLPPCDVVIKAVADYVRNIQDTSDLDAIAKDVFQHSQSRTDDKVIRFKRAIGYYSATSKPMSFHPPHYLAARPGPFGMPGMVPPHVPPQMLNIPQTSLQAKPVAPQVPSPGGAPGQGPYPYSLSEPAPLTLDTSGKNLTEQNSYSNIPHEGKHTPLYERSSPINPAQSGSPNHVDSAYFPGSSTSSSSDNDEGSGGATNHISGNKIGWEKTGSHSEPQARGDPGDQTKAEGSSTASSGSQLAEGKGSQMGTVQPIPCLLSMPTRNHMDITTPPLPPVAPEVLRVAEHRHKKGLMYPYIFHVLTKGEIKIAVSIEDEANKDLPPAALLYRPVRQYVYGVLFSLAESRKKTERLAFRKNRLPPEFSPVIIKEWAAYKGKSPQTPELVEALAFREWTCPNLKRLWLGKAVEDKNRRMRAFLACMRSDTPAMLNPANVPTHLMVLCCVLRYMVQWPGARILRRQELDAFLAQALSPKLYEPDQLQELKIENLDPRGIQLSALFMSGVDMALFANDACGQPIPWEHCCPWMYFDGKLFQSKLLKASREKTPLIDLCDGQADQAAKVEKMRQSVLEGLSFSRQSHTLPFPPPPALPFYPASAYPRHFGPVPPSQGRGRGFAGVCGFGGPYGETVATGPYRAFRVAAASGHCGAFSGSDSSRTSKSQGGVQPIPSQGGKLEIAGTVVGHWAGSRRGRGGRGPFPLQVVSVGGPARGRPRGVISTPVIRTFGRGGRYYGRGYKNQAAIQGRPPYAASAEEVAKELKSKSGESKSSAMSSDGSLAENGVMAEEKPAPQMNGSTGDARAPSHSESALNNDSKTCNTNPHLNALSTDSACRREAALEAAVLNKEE
UniProt Q9NQT4, whole entry, looked up: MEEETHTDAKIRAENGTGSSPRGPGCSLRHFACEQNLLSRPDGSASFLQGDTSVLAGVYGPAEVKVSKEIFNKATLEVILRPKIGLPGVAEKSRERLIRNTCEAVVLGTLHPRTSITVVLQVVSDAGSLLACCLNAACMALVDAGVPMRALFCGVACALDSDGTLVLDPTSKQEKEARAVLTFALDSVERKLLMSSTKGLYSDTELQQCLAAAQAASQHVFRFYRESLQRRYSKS
UniProt Q96DF8: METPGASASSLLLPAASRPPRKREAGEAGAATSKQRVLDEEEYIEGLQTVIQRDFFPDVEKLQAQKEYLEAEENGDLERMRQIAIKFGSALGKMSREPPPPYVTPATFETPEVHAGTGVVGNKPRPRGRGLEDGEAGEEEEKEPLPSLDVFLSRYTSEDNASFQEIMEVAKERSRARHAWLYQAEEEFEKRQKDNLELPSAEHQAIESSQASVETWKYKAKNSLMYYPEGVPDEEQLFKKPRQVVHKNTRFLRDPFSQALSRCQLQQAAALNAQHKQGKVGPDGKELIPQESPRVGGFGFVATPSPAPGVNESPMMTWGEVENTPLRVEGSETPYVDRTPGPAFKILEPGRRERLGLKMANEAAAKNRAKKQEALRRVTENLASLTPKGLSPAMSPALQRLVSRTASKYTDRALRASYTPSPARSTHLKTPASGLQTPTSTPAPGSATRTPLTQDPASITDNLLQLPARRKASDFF
UniProt Q9NSI2: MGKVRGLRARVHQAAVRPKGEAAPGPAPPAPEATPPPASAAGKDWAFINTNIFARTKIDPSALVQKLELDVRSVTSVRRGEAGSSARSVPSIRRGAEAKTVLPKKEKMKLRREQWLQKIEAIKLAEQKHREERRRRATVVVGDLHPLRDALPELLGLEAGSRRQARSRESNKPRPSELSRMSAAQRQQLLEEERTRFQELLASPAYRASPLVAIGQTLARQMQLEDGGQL
UniProt Q9NRY5: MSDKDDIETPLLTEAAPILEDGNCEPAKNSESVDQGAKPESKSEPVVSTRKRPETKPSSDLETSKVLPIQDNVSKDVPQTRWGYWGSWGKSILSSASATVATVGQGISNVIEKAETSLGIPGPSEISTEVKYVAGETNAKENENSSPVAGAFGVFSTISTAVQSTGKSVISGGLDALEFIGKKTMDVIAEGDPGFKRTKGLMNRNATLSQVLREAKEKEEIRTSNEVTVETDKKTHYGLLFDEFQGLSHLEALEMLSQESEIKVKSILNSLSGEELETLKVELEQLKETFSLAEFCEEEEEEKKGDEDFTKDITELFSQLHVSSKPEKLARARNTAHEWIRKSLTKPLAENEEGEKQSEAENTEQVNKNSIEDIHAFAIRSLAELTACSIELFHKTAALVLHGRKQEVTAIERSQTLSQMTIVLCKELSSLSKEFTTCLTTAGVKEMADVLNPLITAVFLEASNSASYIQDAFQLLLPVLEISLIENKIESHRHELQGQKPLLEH
UniProt O60645: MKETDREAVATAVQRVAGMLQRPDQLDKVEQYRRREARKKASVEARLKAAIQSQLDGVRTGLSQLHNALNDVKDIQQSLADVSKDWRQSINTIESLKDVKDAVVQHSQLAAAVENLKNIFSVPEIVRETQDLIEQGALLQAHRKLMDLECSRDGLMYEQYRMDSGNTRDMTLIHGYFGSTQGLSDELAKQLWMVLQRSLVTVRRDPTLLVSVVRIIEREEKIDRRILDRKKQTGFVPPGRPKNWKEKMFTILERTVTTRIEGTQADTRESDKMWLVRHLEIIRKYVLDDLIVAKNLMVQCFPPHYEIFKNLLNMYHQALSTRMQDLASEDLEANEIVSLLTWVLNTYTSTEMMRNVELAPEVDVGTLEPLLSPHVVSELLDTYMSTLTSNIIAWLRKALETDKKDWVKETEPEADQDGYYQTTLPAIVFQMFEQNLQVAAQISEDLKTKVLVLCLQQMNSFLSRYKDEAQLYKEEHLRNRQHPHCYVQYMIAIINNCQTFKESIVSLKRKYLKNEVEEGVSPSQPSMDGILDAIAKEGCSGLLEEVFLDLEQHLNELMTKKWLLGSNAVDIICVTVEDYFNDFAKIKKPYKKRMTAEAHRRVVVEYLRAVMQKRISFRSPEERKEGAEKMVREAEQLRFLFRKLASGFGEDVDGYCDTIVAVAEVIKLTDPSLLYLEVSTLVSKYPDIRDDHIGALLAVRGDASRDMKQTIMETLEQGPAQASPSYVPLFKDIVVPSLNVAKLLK
UniProt Q96DZ1: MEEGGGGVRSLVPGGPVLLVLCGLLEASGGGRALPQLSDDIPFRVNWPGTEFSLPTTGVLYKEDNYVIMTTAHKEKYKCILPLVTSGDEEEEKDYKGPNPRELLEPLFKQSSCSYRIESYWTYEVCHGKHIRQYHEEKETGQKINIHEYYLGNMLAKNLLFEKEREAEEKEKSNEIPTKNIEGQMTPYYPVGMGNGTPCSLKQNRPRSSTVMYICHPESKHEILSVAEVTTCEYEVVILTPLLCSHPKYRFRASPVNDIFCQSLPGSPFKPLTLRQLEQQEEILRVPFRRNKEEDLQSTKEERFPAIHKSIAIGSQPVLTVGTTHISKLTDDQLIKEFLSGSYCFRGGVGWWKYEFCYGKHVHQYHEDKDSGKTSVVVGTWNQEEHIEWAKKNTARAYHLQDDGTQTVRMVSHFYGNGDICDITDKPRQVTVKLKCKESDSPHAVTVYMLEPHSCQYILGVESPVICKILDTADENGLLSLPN
UniProt Q6P587: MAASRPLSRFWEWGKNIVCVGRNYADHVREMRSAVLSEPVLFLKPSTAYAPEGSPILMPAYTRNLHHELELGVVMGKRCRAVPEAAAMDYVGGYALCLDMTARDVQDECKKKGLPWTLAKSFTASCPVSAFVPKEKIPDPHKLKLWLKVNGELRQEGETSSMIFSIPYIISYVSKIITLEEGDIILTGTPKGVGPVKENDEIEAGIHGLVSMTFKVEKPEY
UniProt Q01469, whole entry, looked up: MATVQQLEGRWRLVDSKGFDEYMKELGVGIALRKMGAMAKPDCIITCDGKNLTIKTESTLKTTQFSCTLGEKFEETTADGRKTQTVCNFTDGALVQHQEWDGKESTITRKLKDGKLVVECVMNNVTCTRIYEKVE
UniProt Q9H4H8: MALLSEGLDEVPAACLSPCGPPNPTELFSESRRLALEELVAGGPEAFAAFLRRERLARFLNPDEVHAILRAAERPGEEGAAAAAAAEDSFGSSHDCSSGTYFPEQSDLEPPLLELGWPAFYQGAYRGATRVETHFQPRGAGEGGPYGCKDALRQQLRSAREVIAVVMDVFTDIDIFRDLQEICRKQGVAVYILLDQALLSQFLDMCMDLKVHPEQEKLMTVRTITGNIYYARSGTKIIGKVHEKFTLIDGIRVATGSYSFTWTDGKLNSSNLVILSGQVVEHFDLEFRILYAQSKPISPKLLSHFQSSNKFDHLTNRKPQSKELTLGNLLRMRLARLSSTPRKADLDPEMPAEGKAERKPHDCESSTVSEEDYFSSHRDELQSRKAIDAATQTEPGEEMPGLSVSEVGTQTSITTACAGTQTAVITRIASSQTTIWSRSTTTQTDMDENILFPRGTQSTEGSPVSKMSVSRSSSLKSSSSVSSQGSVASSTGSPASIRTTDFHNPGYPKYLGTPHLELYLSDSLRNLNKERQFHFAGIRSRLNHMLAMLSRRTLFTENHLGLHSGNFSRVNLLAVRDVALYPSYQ
UniProt Q9NWS6: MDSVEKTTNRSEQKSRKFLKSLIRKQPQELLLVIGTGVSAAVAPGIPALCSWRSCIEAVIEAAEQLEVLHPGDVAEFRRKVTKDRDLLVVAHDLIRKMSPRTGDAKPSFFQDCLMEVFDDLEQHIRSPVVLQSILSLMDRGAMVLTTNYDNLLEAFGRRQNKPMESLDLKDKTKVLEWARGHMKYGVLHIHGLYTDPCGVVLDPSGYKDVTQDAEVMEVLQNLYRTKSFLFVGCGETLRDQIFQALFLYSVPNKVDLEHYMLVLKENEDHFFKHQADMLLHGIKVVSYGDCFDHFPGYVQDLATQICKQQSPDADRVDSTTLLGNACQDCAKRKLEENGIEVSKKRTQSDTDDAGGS
UniProt P38117: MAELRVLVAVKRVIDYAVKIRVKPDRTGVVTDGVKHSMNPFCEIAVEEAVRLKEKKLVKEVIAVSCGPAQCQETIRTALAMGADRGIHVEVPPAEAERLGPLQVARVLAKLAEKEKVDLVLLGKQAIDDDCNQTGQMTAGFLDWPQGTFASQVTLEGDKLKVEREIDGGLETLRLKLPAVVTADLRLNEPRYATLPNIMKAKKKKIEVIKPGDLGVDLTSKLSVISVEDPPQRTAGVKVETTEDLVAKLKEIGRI
UniProt Q14320: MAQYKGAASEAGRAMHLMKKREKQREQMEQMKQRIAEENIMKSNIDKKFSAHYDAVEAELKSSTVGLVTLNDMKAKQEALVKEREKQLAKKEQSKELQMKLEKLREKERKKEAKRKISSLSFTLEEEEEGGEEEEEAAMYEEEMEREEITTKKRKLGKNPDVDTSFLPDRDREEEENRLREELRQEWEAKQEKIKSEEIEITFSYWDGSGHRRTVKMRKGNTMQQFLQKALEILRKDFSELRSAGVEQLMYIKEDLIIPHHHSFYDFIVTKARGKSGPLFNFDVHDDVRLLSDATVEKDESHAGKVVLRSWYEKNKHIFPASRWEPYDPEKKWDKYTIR
UniProt Q96GK7: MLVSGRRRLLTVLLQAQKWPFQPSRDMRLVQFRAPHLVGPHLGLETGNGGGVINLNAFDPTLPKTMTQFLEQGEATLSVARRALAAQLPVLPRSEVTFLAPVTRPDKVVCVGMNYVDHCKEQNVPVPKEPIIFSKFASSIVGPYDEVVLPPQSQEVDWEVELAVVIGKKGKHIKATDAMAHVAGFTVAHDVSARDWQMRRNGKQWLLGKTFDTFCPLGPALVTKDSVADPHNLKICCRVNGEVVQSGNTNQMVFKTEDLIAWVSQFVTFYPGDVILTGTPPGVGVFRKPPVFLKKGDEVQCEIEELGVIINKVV
UniProt Q96KR6: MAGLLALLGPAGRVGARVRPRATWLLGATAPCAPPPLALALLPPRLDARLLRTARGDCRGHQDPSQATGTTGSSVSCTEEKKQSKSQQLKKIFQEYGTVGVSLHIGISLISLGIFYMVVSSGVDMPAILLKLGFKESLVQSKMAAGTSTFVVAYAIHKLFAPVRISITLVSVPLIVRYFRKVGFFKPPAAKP
UniProt Q5RKV6, whole entry, looked up: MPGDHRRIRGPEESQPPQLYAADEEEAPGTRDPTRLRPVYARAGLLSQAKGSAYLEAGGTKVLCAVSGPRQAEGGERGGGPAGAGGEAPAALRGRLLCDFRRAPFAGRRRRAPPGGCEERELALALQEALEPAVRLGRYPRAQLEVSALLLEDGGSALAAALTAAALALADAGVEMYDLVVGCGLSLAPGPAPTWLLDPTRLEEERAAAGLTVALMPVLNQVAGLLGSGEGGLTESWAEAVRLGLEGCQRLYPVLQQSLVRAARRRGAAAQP

The list shows a part of the results.

Compound in the experiment: COc1cc2ncnc(Nc3ccc(F)c(Cl)c3)c2cc1OCCCN1CCOCC1 [gefitinib]
The experiment is described as follows: log2 fold change, soluble protein after heating vs DMSO (PISA); higher = thermal stabilisation; K562 lysate, 10 uM; active = over 0.2 and 3.5 SD of the protein, either way, in both replicates (recomputed). The gist of the method:
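Dounce homogenisation of K562 pellets in PBS pH 7.4 with 1 mM MgCl2 produced a crude extract, used at 1 mg/mL protein. Exposure to 10 μM compound lasted 30 min, and aliquots were then heated for 3 min across 48°C-58°C, pooled and brought to 0.5% NP-40 at 4°C. The supernatant after 21,000xg for 90 min was quantified by TMTpro 16plex LC-MS/MS with channel sums equalised. Duplicate values are given as log-two fold change in thermal stability relative to solvent controls.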
Turning to ETNK1 (UniProt Q9HBU6), the log2 fold change is inactive: 0.052.
As to FAM83A (UniProt Q86UY5), the log2 fold change was inactive: 0.017.
Take FADS3 (UniProt Q9Y5Q0): the log2 fold change was inactive: 0.063.
For EXOC2 (UniProt Q96KP1), the log2 fold change is inactive: 0.005.
Regarding FAM120A isoform 6 (UniProt Q9NZB2), the log2 fold change was inactive: -0.017.
EXOSC5 (UniProt Q9NQT4): the log2 fold change was inactive: 0.003.
With FAM162A (UniProt Q96A26), the log2 fold change was inactive: -0.038.
Regarding EZH2 isoform 2 (UniProt Q15910), the log2 fold change was inactive: 0.077.
In the case of EXOC4 (UniProt Q96A65), the log2 fold change was inactive: -0.035.
On to EXOSC4 (UniProt Q9NPD3), for which the log2 fold change was inactive: -0.015.
With ESS2 (UniProt Q96DF8) the figure was inactive: -0.027; with EXOC6 (UniProt Q8TAG9), inactive: 0.003; with FADS1, A0A0A0MR51, inactive: -0.001.
Turning to F5 (UniProt P12259), the log2 fold change is inactive: 0.058.
In the case of FAM207A (UniProt Q9NSI2) it was inactive: -0.009.
ESD (UniProt P10768): the log2 fold change is inactive: -0.05.
Take FAM122A (UniProt Q96E09): the log2 fold change is inactive: -0.039.
On to FAM114A2 (UniProt Q9NRY5), for which the log2 fold change was inactive: 0.073.
Consider FAM136A (UniProt Q96C01), for which the log2 fold change was inactive: 0.013.
For the target EXOC3 (UniProt O60645), the log2 fold change is inactive: -0.001.
In the case of EYA3 (UniProt Q99504) it was inactive: 0.001; in that of ERVK3-1, A0A0U1RQV1, inactive: -0.036; in that of ERLEC1 (UniProt Q96DZ1), inactive: 0.084.
For ESYT1 isoform 2 (UniProt Q9BSJ8), the log2 fold change is inactive: -0.031.
Turning to FAHD1 (UniProt Q6P587), the log2 fold change was inactive: -0.01.
On to FAM49B (UniProt Q9NUQ9), for which the log2 fold change is inactive: 0.013.
FABP5 (UniProt Q01469): the log2 fold change is inactive: -0.03.
In the case of FAM83D (UniProt Q9H4H8) it was inactive: 0.009.
With EXTL2 (UniProt Q9UBQ6) the figure was inactive: -0.111; with FAM118A (UniProt Q9NWS6), inactive: 0.003; with ESYT2 (UniProt H7BXI1), inactive: -0.006.
In the case of ETFB (UniProt P38117) it was inactive: 0.011.
For the target ERP29 (UniProt P30040), the log2 fold change is inactive: -0.002.
As to FAM50A (UniProt Q14320), the log2 fold change was inactive: -0.002.
Regarding ERICH1 (UniProt Q86X53), the log2 fold change is inactive: 0.105.
With FAHD2A (UniProt Q96GK7), the log2 fold change was inactive: -0.012.
For FAM210B (UniProt Q96KR6), the log2 fold change was inactive: 0.057.
For ETF1 (UniProt P62495), the log2 fold change was inactive: -0.014.
In the case of EXOSC6 (UniProt Q5RKV6) it was inactive: -0.042; in that of EXOC7 (UniProt Q9UPT5), inactive: -0.018.
